Test results as given in paper PMC5641076.
No constants are given. Whether binding was seen depends on the method and setting. Binding seen in cells or lysates may run through a third protein. Some results given as binding are weak or reduced against the parent protein; the word gives no strength. Sequences can lack the tags named with a protein.

Chains of the proteins cited; added tags and fusions are not shown.
UniProt P06493: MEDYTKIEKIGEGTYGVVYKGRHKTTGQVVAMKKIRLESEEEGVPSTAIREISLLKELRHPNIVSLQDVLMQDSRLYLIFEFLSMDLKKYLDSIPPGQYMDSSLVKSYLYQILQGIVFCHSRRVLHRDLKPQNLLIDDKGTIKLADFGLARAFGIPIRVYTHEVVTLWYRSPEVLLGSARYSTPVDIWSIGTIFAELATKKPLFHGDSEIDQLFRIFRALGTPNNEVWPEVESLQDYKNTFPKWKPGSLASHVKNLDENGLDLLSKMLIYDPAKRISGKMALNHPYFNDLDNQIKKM

Target: Flag-CDK1 (human) (UniProt P06493)
Test: co-IP; pcDNA-Flag-CDK1 and pcDNA-Myc-iASPP co-transfected into HCT116 and LoVo cells; IP with Flag monoclonal antibodies, Western blot with Flag and Myc antibodies; lysates treated with DNase and RNase

binding: binds
B1: Myc-iASPP (protein, UniProt Q8WUF5 1-828)
chain: MDSEAFQSARDFLDMNFQSLAMKHMDLKQMELDTAAAKVDELTKQLESLWSDSPAPPGPQAGPPSRPPRYSSSSIPEPFGSRGSPRKAATDGADTPFGRSESAPTLHPYSPLSPKGRPSSPRTPLYLQPDAYGSLDRATSPRPRAFDGAGSSLGRAPSPRPGPGPLRQQGPPTPFDFLGRAGSPRGSPLAEGPQAFFPERGPSPRPPATAYDAPASAFGSSLLGSGGSAFAPPLRAQDDLTLRRRPPKAWNESDLDVAYEKKPSQTASYERLDVFARPASPSLQLLPWRESSLDGLGGTGKDNLTSATLPRNYKVSPLASDRRSDAGSYRRSLGSAGPSGTLPRSWQPVSRIPMPPSSPQPRGAPRQRPIPLSMIFKLQNAFWEHGASRAMLPGSPLFTRAPPPKLQPQPQPQPQPQSQPQPQLPPQPQTQPQTPTPAPQHPQQTWPPVNEGPPKPPTELEPEPEIEGLLTPVLEAGDVDEGPVARPLSPTRLQPALPPEAQSVPELEEVARVLAEIPRPLKRRGSMEQAPAVALPPTHKKQYQQIISRLFHRHGGPGPGGPEPELSPITEGSEARAGPPAPAPPAPIPPPAPSQSSPPEQPQSMEMRSVLRKAGSPRKARRARLNPLVLLLDAALTGELEVVQQAVKEMNDPSQPNEEGITALHNAICGANYSIVDFLITAGANVNSPDSHGWTPLHCAASCNDTVICMALVQHGAAIFATTLSDGATAFEKCDPYREGYADCATYLADVEQSMGLMNSGAVYALWDYSAEFGDELSFREGESVTVLRRDGPEETDWWWAALHGQEGYVPRNYFGLFPRVKPQRSKV
